PubChem BioAssay AID1224828 | NIAID, 2016
The whole screen tested about 17,000 reagents; this is an unselected part. Over the whole deposit, 762 (4.5%) are marked active. 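Active calls include both raised and lowered p65 entry, mostly lowered; wells with fewer than 50 cells lack a z-score.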 Raw values vary from plate to plate and are shown uncorrected.

Screen: 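Knock-downs that increase or decrease LPS-induced p65 nuclear translocation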 (primary screen)
Cell system: mouse RAW264.7 G9 macrophage reporter cells (GFP-p65, Tnf promoter-mCherry)
Reagents: siRNA pool against mouse genes, 100 nM
Duration: 2 days siRNA transfection, then 40 min LPS before fixation
Treatment: LPS (Salmonella minnesota R595) at 10 ng/ml
Read-out: 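Imaged p65 nuclear translocation ratio, normalised to the plate median, converted to robust z-scores and averaged across two replicates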
Scale: p65 translocation robust z-score: higher = more nuclear NF-kappaB p65 after LPS than the plate median; nuclear/cytoplasmic p65 ratio: higher = more nuclear NF-kappaB p65
Hit rule: 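Called active when z exceeds 3.3 or falls under -1.56 (median of Tlr4 controls), giving activity score of at least 50; no calls for control wells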
Calls: active = hit (p65 shift raised or lowered); inactive = no clear change

Zfp82: p65 translocation robust z-score = 0.66; nuclear/cytoplasmic p65 ratio, rep 1 = 1.61; nuclear/cytoplasmic p65 ratio, rep 2 = 1.23; low cell count flag = enough cells to score; Call = inactive
Clca3a1: p65 translocation robust z-score = -0.93; nuclear/cytoplasmic p65 ratio, rep 1 = 1.41; nuclear/cytoplasmic p65 ratio, rep 2 = 1.68; low cell count flag = enough cells to score; Call = inactive
Dnph1: p65 translocation robust z-score = 0.68; nuclear/cytoplasmic p65 ratio, rep 1 = 1.63; nuclear/cytoplasmic p65 ratio, rep 2 = 1.56; low cell count flag = enough cells to score; Call = inactive
Or5p70: nuclear/cytoplasmic p65 ratio, rep 1 = 1.45; nuclear/cytoplasmic p65 ratio, rep 2 = 1.24; low cell count flag = fewer than 50 cells per well; well left out of scoring; Call = inactive
Haspin: p65 translocation robust z-score = 0.13; nuclear/cytoplasmic p65 ratio, rep 1 = 1.83; nuclear/cytoplasmic p65 ratio, rep 2 = 1.31; low cell count flag = enough cells to score; Call = inactive
Fam133b: p65 translocation robust z-score = 2.22; nuclear/cytoplasmic p65 ratio, rep 1 = 1.66; nuclear/cytoplasmic p65 ratio, rep 2 = 1.75; low cell count flag = enough cells to score; Call = inactive
Zbtb8a: p65 translocation robust z-score = -1.23; nuclear/cytoplasmic p65 ratio, rep 1 = 1.24; nuclear/cytoplasmic p65 ratio, rep 2 = 1.3; low cell count flag = enough cells to score; Call = inactive
Tspan10: p65 translocation robust z-score = -0.55; nuclear/cytoplasmic p65 ratio, rep 1 = 1.69; nuclear/cytoplasmic p65 ratio, rep 2 = 1.4; low cell count flag = enough cells to score; Call = inactive
Elovl6: p65 translocation robust z-score = 0.76; nuclear/cytoplasmic p65 ratio, rep 1 = 1.49; nuclear/cytoplasmic p65 ratio, rep 2 = 1.53; low cell count flag = enough cells to score; Call = inactive
Atg14: p65 translocation robust z-score = -0.82; nuclear/cytoplasmic p65 ratio, rep 1 = 1.47; nuclear/cytoplasmic p65 ratio, rep 2 = 1.63; low cell count flag = enough cells to score; Call = inactive
Or4p8: p65 translocation robust z-score = 0.43; nuclear/cytoplasmic p65 ratio, rep 1 = 1.82; nuclear/cytoplasmic p65 ratio, rep 2 = 1.56; low cell count flag = enough cells to score; Call = inactive
Taldo1: p65 translocation robust z-score = -0.87; nuclear/cytoplasmic p65 ratio, rep 1 = 1.35; nuclear/cytoplasmic p65 ratio, rep 2 = 1.45; low cell count flag = enough cells to score; Call = inactive
Ttll13: nuclear/cytoplasmic p65 ratio, rep 1 = 1.69; nuclear/cytoplasmic p65 ratio, rep 2 = 1.7; low cell count flag = fewer than 50 cells per well; well left out of scoring; Call = inactive
P2rx6: p65 translocation robust z-score = 0.35; nuclear/cytoplasmic p65 ratio, rep 1 = 1.5; nuclear/cytoplasmic p65 ratio, rep 2 = 1.46; low cell count flag = enough cells to score; Call = inactive

Already shown: 2 of the entries above.
Atg14: p65 translocation robust z-score = -0.82; nuclear/cytoplasmic p65 ratio, rep 1 = 1.47; nuclear/cytoplasmic p65 ratio, rep 2 = 1.63; low cell count flag = enough cells to score; Call = inactive
Or4p8: p65 translocation robust z-score = 0.43; nuclear/cytoplasmic p65 ratio, rep 1 = 1.82; nuclear/cytoplasmic p65 ratio, rep 2 = 1.56; low cell count flag = enough cells to score; Call = inactive
